Measured values reported in article PMC9904277 (Chemical Communications (Cambridge, England), 2023).

assay: general procedure: Fmoc solid-phase peptide synthesis; Rink amide resin; Oxyma/DIC; details: cyclisation step, analytical HPLC

In order of rising “final HPLC purity” value:
1. PEPTIDE1{[ac].S.A.A.Q.L.T.A.[hCys].R.L.K.[hCys].L.G.D.E.L.H.Q.R.T.M.W.[am]}|CHEM1{[Mal]}$PEPTIDE1,CHEM1,9:R3-1:R1|PEPTIDE1,CHEM1,13:R3-1:R2$$$V2.0  88%
2. PEPTIDE1{[ac].S.A.A.Q.L.T.A.A.R.L.K.A.L.C.D.E.L.C.Q.R.T.M.W.[am]}|CHEM1{[Mal]}$PEPTIDE1,CHEM1,15:R3-1:R1|PEPTIDE1,CHEM1,19:R3-1:R2$$$V2.0  90%
3. PEPTIDE1{[ac].S.A.A.Q.L.T.A.[dC].R.L.K.[dC].L.G.D.E.L.H.Q.R.T.M.W.[am]}|CHEM1{[Mal]}$PEPTIDE1,CHEM1,9:R3-1:R1|PEPTIDE1,CHEM1,13:R3-1:R2$$$V2.0  90%
4. PEPTIDE1{[ac].S.A.A.Q.L.T.A.C.R.L.K.C.L.G.D.E.L.H.Q.R.T.M.W.[am]}|CHEM1{[Mal]}$PEPTIDE1,CHEM1,9:R3-1:R1|PEPTIDE1,CHEM1,13:R3-1:R2$$$V2.0  91%
5. PEPTIDE1{[ac].S.A.A.Q.L.T.A.C.R.L.K.[hCys].L.G.D.E.L.H.Q.R.T.M.W.[am]}|CHEM1{[Mal]}$PEPTIDE1,CHEM1,9:R3-1:R1|PEPTIDE1,CHEM1,13:R3-1:R2$$$V2.0  93%
6. PEPTIDE1{[ac].S.A.A.Q.L.T.A.A.R.L.K.A.L.G.D.C.L.H.Q.C.T.M.W.[am]}|CHEM1{[Mal]}$PEPTIDE1,CHEM1,17:R3-1:R1|PEPTIDE1,CHEM1,21:R3-1:R2$$$V2.0  95%
7. PEPTIDE1{[ac].S.A.A.Q.L.Y.A.C.R.L.K.C.F.G.D.E.F.H.Q.[am]}|CHEM1{[Mal]}$PEPTIDE1,CHEM1,9:R3-1:R1|PEPTIDE1,CHEM1,13:R3-1:R2$$$V2.0  95%
8. PEPTIDE1{[ac].S.A.A.Q.L.T.A.C.R.L.K.C.L.G.D.E.L.H.Q.R.T.M.W.[am]}|CHEM1{[mXyl]}$PEPTIDE1,CHEM1,9:R3-1:R1|PEPTIDE1,CHEM1,13:R3-1:R2$$$V2.0  96%
9. PEPTIDE1{[ac].S.A.A.Q.L.T.A.A.R.L.C.A.L.G.C.E.L.H.Q.R.T.M.W.[am]}|CHEM1{[Mal]}$PEPTIDE1,CHEM1,12:R3-1:R1|PEPTIDE1,CHEM1,16:R3-1:R2$$$V2.0  98%
10. PEPTIDE1{[ac].S.A.A.Q.L.T.A.A.R.L.K.C.L.G.D.C.L.H.Q.R.T.M.W.[am]}|CHEM1{[Mal]}$PEPTIDE1,CHEM1,13:R3-1:R1|PEPTIDE1,CHEM1,17:R3-1:R2$$$V2.0  98%
11. PEPTIDE1{[ac].S.A.A.C.L.T.A.C.R.L.K.A.L.G.D.E.L.H.Q.R.T.M.W.[am]}|CHEM1{[Mal]}$PEPTIDE1,CHEM1,5:R3-1:R1|PEPTIDE1,CHEM1,9:R3-1:R2$$$V2.0  99%
12. PEPTIDE1{[ac].S.A.A.Q.L.T.A.A.R.L.K.A.L.G.C.E.L.H.C.R.T.M.W.[am]}|CHEM1{[Mal]}$PEPTIDE1,CHEM1,16:R3-1:R1|PEPTIDE1,CHEM1,20:R3-1:R2$$$V2.0  99%
13. PEPTIDE1{[ac].S.A.A.Q.L.T.A.A.R.L.K.A.L.G.D.E.L.C.Q.R.T.C.W.[am]}|CHEM1{[Mal]}$PEPTIDE1,CHEM1,19:R3-1:R1|PEPTIDE1,CHEM1,23:R3-1:R2$$$V2.0  99%
14. PEPTIDE1{[ac].S.A.C.Q.L.T.C.A.R.L.K.A.L.G.D.E.L.H.Q.R.T.M.W.[am]}|CHEM1{[Mal]}$PEPTIDE1,CHEM1,4:R3-1:R1|PEPTIDE1,CHEM1,8:R3-1:R2$$$V2.0  99%
15. PEPTIDE1{[ac].S.C.A.Q.L.C.A.A.R.L.K.A.L.G.D.E.L.H.Q.R.T.M.W.[am]}|CHEM1{[Mal]}$PEPTIDE1,CHEM1,3:R3-1:R1|PEPTIDE1,CHEM1,7:R3-1:R2$$$V2.0  99%

same assay, conditions: whole synthesis, analytical HPLC

In order of falling “final HPLC purity” value:
1. FAM-Ahx-SAAQLTAARLK ALGDELHQRTMW-NH 2  99%
2. PEPTIDE1{[ac].S.A.A.C.L.T.A.C.R.L.K.A.L.G.D.E.L.H.Q.R.T.M.W.[am]}$$$$V2.0  99%
3. PEPTIDE1{[ac].S.A.A.Q.L.T.A.A.R.L.K.A.L.G.D.C.L.H.Q.C.T.M.W.[am]}$$$$V2.0  99%
4. PEPTIDE1{[ac].S.A.A.Q.L.T.A.A.R.L.K.C.L.G.D.C.L.H.Q.R.T.M.W.[am]}$$$$V2.0  99%
5. PEPTIDE1{[ac].S.A.A.Q.L.T.A.C.R.L.K.C.L.G.D.E.L.H.Q.R.T.M.W.[am]}$$$$V2.0  99%
6. PEPTIDE1{[ac].S.A.A.Q.L.T.A.[mS5st].R.L.K.[mS5st].L.G.D.E.L.H.Q.R.T.M.W.[am]}$PEPTIDE1,PEPTIDE1,9:R3-13:R3$$$V2.0  99%
7. PEPTIDE1{[ac].S.A.C.Q.L.T.C.A.R.L.K.A.L.G.D.E.L.H.Q.R.T.M.W.[am]}$$$$V2.0  99%
8. PEPTIDE1{[ac].S.A.A.Q.L.T.A.A.R.L.K.A.L.G.D.E.L.H.Q.R.T.M.W.[am]}$$$$V2.0  98%
9. PEPTIDE1{[ac].S.A.A.Q.L.T.A.A.R.L.K.A.L.G.D.E.L.C.Q.R.T.C.W.[am]}$$$$V2.0  97%
10. PEPTIDE1{[ac].S.A.A.Q.L.T.A.[hCys].R.L.K.[hCys].L.G.D.E.L.H.Q.R.T.M.W.[am]}$$$$V2.0  97%
11. PEPTIDE1{[ac].S.A.A.Q.L.T.A.A.R.L.C.A.L.G.C.E.L.H.Q.R.T.M.W.[am]}$$$$V2.0  96%
12. PEPTIDE1{[ac].S.A.A.Q.L.Y.A.A.R.L.K.A.L.G.D.E.L.H.Q.[am]}$$$$V2.0  95%
13. PEPTIDE1{[ac].S.A.A.Q.L.Y.A.C.R.L.K.C.F.G.D.E.F.H.Q.[am]}$$$$V2.0  95%
14. PEPTIDE1{[ac].R.Y.G.R.E.L.R.R.M.S.D.E.F.V.D.S.F.K.K.[am]}$$$$V2.0  94%
15. PEPTIDE1{[ac].S.A.A.Q.L.T.A.A.R.L.K.A.L.G.D.E.L.H.Q.[am]}$$$$V2.0  93%
16. PEPTIDE1{[ac].T.M.E.N.L.S.R.R.L.K.V.T.G.D.L.F.D.I.M.S.[am]}$$$$V2.0  93%
17. PEPTIDE1{[ac].S.A.A.Q.L.T.A.A.R.L.K.A.L.C.D.E.L.C.Q.R.T.M.W.[am]}$$$$V2.0  92%
18. PEPTIDE1{[ac].S.A.A.Q.L.L.A.A.R.L.K.A.F.G.D.E.F.H.Q.[am]}$$$$V2.0  89%
19. PEPTIDE1{[ac].S.C.A.Q.L.C.A.A.R.L.K.A.L.G.D.E.L.H.Q.R.T.M.W.[am]}$$$$V2.0  89%
20. PEPTIDE1{[ac].S.A.A.Q.L.T.A.[dC].R.L.K.[dC].L.G.D.E.L.H.Q.R.T.M.W.[am]}$$$$V2.0  86%
21. PEPTIDE1{[ac].S.A.A.Q.L.T.A.A.R.L.K.A.L.G.C.E.L.H.C.R.T.M.W.[am]}$$$$V2.0  84%
22. FAM-Ahx-TMENLSRRLKVTGDLFDIMS-NH2  83%
23. PEPTIDE1{[ac].S.A.A.Q.L.T.A.C.R.L.K.[hCys].L.G.D.E.L.H.Q.R.T.M.W.[am]}$$$$V2.0  82%
24. PEPTIDE1{[ac].S.A.A.Q.L.Y.A.A.R.L.K.A.[Nle].G.D.E.F.H.Q.[am]}$$$$V2.0  81%
25. PEPTIDE1{[ac].S.A.A.Q.L.T.A.[mS5].R.L.K.[mS5].L.G.D.E.L.H.Q.R.T.M.W.[am]}$$$$V2.0  80%
26. PEPTIDE1{[ac].S.A.A.Q.L.Y.A.A.R.L.K.A.L.G.D.E.F.H.Q.[am]}$$$$V2.0  80%
27. PEPTIDE1{[ac].S.A.A.Q.L.L.A.A.R.L.K.A.L.G.D.E.L.H.Q.[am]}$$$$V2.0  76%
28. PEPTIDE1{[ac].S.A.A.Q.L.Y.A.A.R.L.K.A.F.G.D.E.F.H.Q.[am]}$$$$V2.0  75%

Some peptides are written in HELM: one residue between dots, names in brackets for other building blocks, links after the first $.
